Results as given in PubChem BioAssay AID1439 (NMMLSC, 2008).
The whole screen tested about 220,000 compounds, of which about 770 (0.35%) were called active. Inconclusive means that the source gave no clear call. Such entries were picked first, then a sample of the others. No stated cut-off is given here; in the data, active means binding response below about 49% or above about 150%; inconclusive means no clear call, values can overlap the other calls; inactive means in between.

Amino acid sequences for entries named in this document (tags omitted).
UniProt P09471, whole entry, looked up: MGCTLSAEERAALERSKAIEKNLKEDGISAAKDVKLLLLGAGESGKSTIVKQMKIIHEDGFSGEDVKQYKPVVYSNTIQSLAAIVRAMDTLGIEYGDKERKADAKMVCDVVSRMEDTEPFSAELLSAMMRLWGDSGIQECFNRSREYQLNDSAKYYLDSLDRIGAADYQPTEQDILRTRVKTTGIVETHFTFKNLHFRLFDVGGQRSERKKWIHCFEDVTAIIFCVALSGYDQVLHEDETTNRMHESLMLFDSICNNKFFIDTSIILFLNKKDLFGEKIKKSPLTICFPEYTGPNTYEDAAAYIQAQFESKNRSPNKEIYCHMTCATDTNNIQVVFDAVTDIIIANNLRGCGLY

The compounds below were run against Guanine nucleotide-binding protein G(o) subunit alpha (Homo sapiens) (UniProt P09471) (assay: RGS7-Galphao binding modulators, primary screen, biochemical, multiplexed bead flow cytometry (AID 1439;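 further: fluorescent Galphao held in activated GDP-AlF4 state binding bead-coupled RGS7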)). Conditions: at 10 µM, actives lie on both sides.

SMILES | binding response (% of control)
Cc1ccc2nc(-c3ccc(NC(=S)NC4CC(C)(C)NC(C)(C)C4)cc3)sc2c1 | inconclusive: 115%
CC1(C)CC(=O)C2=C(C1)Nc1ccccc1S2 | inconclusive: 38.4%
CCCCCCn1c(N)c(C#N)c2ccc([N+](=O)[O-])cc2c1=O | inactive: 98.9%
O=C(COc1ccc([N+](=O)[O-])cc1)Nc1nnc(-c2cccnc2)s1 | inconclusive: 257%
Cc1ccccc1C(=O)c1cccn1CC(=O)NCCCN1CCc2ccccc2C1 | inconclusive: 131%
CC(C)Nc1nc2nonc2nc1Nc1ccccc1 | inconclusive: 100%
Cc1cc(C)n(-c2nc3ccccc3c(=O)n2OCC(=O)N(C)C)n1 | inactive: 103%
O=C(NCc1ccco1)C1CCCN1S(=O)(=O)c1ccccc1C(F)(F)F (stereo unspecified) | inconclusive: 101%
CCc1nn2c(N)c(/C=C3\C=Nc4ccccc43)c(=O)nc2s1 | inconclusive: 102%
Cc1cc(C(=O)C(=O)N(C)C)c(C)n1-c1ccc(Cl)c(Cl)c1 | inconclusive: 105%
Nc1ccc(S(=O)(=O)N2CCCC2C(=O)O)cc1 (stereo unspecified) | inconclusive: 114%
C#CCCOC(=O)N1C2=NC(C(=O)OC)=C(C(=O)OC)[C@@H]3N(C)c4ccccc4[C@]23C[C@H]1C(=O)OC | inconclusive: 103%
CC(Oc1ccccc1)C(=O)N=Nc1c(O)[nH]c2ccc([N+](=O)[O-])cc12 (stereo unspecified) | inconclusive: 108%
O=c1[nH][nH]c(C(F)(F)F)c1/C=N/N1CCOCC1 | inconclusive: 97.7%
N#CC1(NC(=O)CN2CCc3ccccc3C2)CCCC1 | inactive: 99.5%
CN(C)S(=O)(=O)c1ccc(N2CCCC2)c(C(=O)NC(c2ccccc2)c2ccccc2)c1 | inactive: 101%
CN(c1ccc(OCC(=O)NCc2cccnc2)cc1)S(=O)(=O)c1ccc(Cl)cc1 | inconclusive: 113%
CC(C)Cn1c(=O)[nH]c(=O)c2c(C(F)(F)F)cc(-c3ccccc3)nc21 | inconclusive: 98.6%
Cc1cc(C)nc(NNC(=O)c2ccccc2O)n1 | inactive: 99.9%
OC(CNCCNc1ncccc1C(F)(F)F)COc1ccc(F)cc1 (stereo unspecified) | inconclusive: 101%
CN(C(=O)COc1ccc([N+](=O)[O-])cc1)C1CCS(=O)(=O)C1 (stereo unspecified) | inactive: 99.8%
CO/N=C/c1ccc(OC)c(Oc2nc(OC)cc(OC)n2)c1 | inconclusive: 146%
CCC(CO)NCc1ccc(OC2CCCC2)cc1 (stereo unspecified) | inactive: 103%

SMILES | binding response (% of control)
NS(=O)(=O)c1ccc(N/N=C/c2cn(-c3ccccc3)nc2-c2ccccc2)c([N+](=O)[O-])c1 | inactive: 124%
CC(NC(=O)C(Cc1ccccc1)n1cccc1)c1ccccc1 (stereo unspecified) | inconclusive: 84.4%
COc1ccc(C(=O)Nc2cc(=O)[nH]c3ncnn23)cc1 | inconclusive: 67.3%
CCC(C)Cn1c(O)cc2nn(-c3nc4ccccc4s3)c(=O)c-2c1C (stereo unspecified) | inconclusive: 72.1%
O=C(CC1SC(=O)N(c2ccccc2)C1=O)Nc1cccc2ccccc12 (stereo unspecified) | inconclusive: 83.8%
COc1ccccc1NC(=O)c1cc2ccccc2nc1C | inconclusive: 107%
COC(=O)C(C(=O)OC)c1ccc(-n2cccc2)cc1 | inconclusive: 82.7%
O=C(O)c1ccn2c(C(=O)c3ccccc3)c(-c3ccccc3)cc2c1 | inconclusive: 113%
Cc1ccn(C(=O)c2ccc(NC(=O)CC(C)C)cc2)n1 | inactive: 103%
O=C(/C=C/c1ccco1)N(c1ccccn1)c1ccccn1 | inactive: 93.4%
N#Cc1ccc(CSc2nnc3[nH]c(=O)cc(N)n23)cc1 | inconclusive: 104%
CC(C)=CC(=O)OCC(=O)Nc1cc(C)ccc1C | inconclusive: 116%
CC(=O)N(C)C(c1ccc(N(C)C)cc1)c1nnnn1-c1c(C)cccc1C (stereo unspecified) | inactive: 102%
C/C(CC(=O)Nc1cc(Cl)ccc1Cl)=N\NC(=O)c1ccccc1Br | inactive: 92%
COc1ccc(Nc2oc(-c3ccccc3F)nc2C#N)cc1 | inconclusive: -23.7%
CCOC(=O)NC(=O)c1cn(CCNCCO)c(=O)[nH]c1=O | inconclusive: 135%
Cc1ccc(-c2cccc(C3CC=CC4C3C(=O)N(Cc3ccccc3)C4c3cc(C)ccc3F)c2)cc1 (stereo unspecified) | inconclusive: 134%
CC1=NN(C(=S)Nc2ccccc2)C(C)(C)C1 | inactive: 103%
O=C(CSc1nc2ccccc2[nH]1)N/N=C/c1ccncc1 | inconclusive: 50.9%
O=C(CN1CCN(c2nc(-c3ccccc3)cs2)CC1)NNC(=O)c1ccco1 | inconclusive: 87.7%
CN(C)S(=O)(=O)c1ccc(C(=O)NCC(=O)N/N=C/c2ccccc2Cl)cc1 | inactive: 102%
O=C(N/N=C/c1ccsc1)c1ccc2ccccc2n1 | inconclusive: 93.7%
O=c1[nH]c(-[n+]2ccccc2)c(/C=N/N=C(\[O-])c2ccccc2)s1 | inconclusive: 92.1%

Single entries from the results shown.
Under binding response (% of control), COc1ccccc1NC(=O)c1cc2ccccc2nc1C is listed with inconclusive: 107%
Under binding response (% of control), COc1ccc(C(=O)Nc2cc(=O)[nH]c3ncnn23)cc1 is listed with inconclusive: 67.3%

Remaining list, next part

SMILES | binding response (% of control)
Cc1ccc(S(=O)(=O)Nc2cccc(-c3ccc4nnc(C)n4n3)c2)s1 | inconclusive: 103%
C=CCNC(=S)N1CCN(c2ccccc2Cl)CC1 | inconclusive: 104%
COc1cccc(NC(=O)COC(=O)c2nc(Cl)ccc2Cl)c1 | inconclusive: 109%
Cc1ccc(NC(=O)c2cccs2)cc1NC(=O)c1cccnc1 | inconclusive: 124%
C/C(=N\NC(=O)c1c(Cl)c(C)nn1C)c1cccc(NC(=O)COc2ccc(Cl)cc2)c1 | inactive: 97.6%
CCCC(C)c1nnc(NC(=O)CN2C(=O)c3ccccc3C2=O)s1 (stereo unspecified) | inconclusive: 97.8%
O=C(NCc1c(Cl)cccc1Cl)c1ccc2nnsc2c1 | inconclusive: 123%
CCN(CC)CCSc1nnc2c3ccccc3n(Cc3ccccc3)c2n1 | inconclusive: 120%
O=C(O)C1C2CCC(C2)C1C(=O)NCc1ccco1 (stereo unspecified) | inactive: 90.7%
CN(Cc1ncc[nH]1)Cc1cn(-c2ccccc2)nc1-c1ccc2c(c1)OCO2 | inconclusive: 158%
COc1cc(O)oc1C=Nc1ccc(C(=O)O)cc1 | inconclusive: 122%
CCOC(=O)N1CCN(c2cc(NCCO)c([N+](=O)[O-])c3nonc23)CC1 | inactive: 133%
CCCCCN1CN(S(=O)(=O)c2cccs2)c2nc3ccccc3nc21 | inconclusive: 279%
C[C@@]12CC(=O)NC1N(C(=O)c1ccccc1)C(c1ccccc1OC(=O)c1ccccc1)C2 (stereo partly specified) | inactive: 103%
COc1ccc(C2C(C(=O)c3cccs3)=C(O)C(=O)N2c2cccc(C)n2)cc1 (stereo unspecified) | inconclusive: 87.9%
O=c1c2[nH]c3ccc(F)cc3c2ncn1Cc1ccncc1 | inconclusive: 104%
CC1CCc2cc(F)ccc2N1C(=O)CCl (stereo unspecified) | inactive: 106%
NNC(=O)c1ncoc1-c1ccc(Cl)cc1 | inconclusive: 60.7%
CC1=NNC(=O)C1CCC(=O)N/N=C/c1ccc(C)cc1 (stereo unspecified) | inconclusive: 295%
NC1=NC[C@H](CC2CCCCC2)N1CCc1cc(C(F)(F)F)cc(C(F)(F)F)c1 | inconclusive: 104%
O=C1CN(Cc2cc(=O)oc3cc4c(cc23)CCC4)CCN1 | inconclusive: 97.7%
Cc1ccc(Cn2c(SCC(=O)NCC3CCCO3)nc3c2c(=O)n(C)c(=O)n3C)cc1 (stereo unspecified) | inactive: 99.1%
COC(=O)c1cc(=O)n(Cc2ccc(F)cc2)c(=Nc2ccccc2)s1 | inconclusive: 102%

SMILES | binding response (% of control)
COc1ccc(CCN2C(=NC(=O)C(C)C)SC3CS(=O)(=O)CC32)cc1OC (stereo unspecified) | inconclusive: 88.3%
O=C(COC(=O)c1cnc(Cl)c(Cl)c1)NCc1ccco1 | inconclusive: 55.6%
COc1ccccc1NS(=O)(=O)c1cc(NC(=O)c2cc[n+]([O-])cc2)ccc1N1CCCC1 | inconclusive: 97.8%
Cn1c(=O)c2[nH]c(N=Nc3ccc(N)cc3N)nc2n(C)c1=O | inconclusive: 59.3%
C/C(=N/NC(=O)CNC(=O)COc1cccc(C)c1)c1ccco1 | inconclusive: 50.3%
CCc1c(O)c(-c2ccccc2)c(=O)n(-c2ccccn2)c1-c1ccccc1 | inconclusive: 121%
Cc1ccc(C(=O)O)cc1Nc1ncnc2sc3c(c12)CCC3 | inconclusive: 113%
CCc1ccc(NC(=O)c2c(C(=O)Nc3ccccc3)sc3nc(C)cc(=O)n23)cc1 | inconclusive: 85.3%
O=C(C[n+]1ccc(-c2nnc3n2CCCCC3)cc1)c1ccc(Cl)cc1 | inconclusive: 118%
CSc1sccc1/C=N/O | inconclusive: -444%
Fc1ccc(-c2cnc3n2CCCCC3)cc1 | inconclusive: 107%
COc1ccc(CC(=O)Nc2ccc(C(=O)Nc3nccs3)cc2)cc1OC | inconclusive: 97.8%
O=C(Nc1cccc2c1C(=O)NC2=O)c1ccccc1[N+](=O)[O-] | inconclusive: 156%
Cc1cc(C(=O)OCC(=O)Nc2c(F)cccc2F)c(C)n1-c1ccccc1 | inconclusive: 106%
Oc1ccccc1/C=N/Nc1nn[nH]n1 | inconclusive: 94.4%
Cc1ccc(S(=O)(=O)N/N=C/c2cc(Br)ccc2O)cc1 | inconclusive: 80%
O=C(O)c1ccc(N2C(=O)/C(=C\c3ccccc3)N=C2c2ccccc2)cc1 | inconclusive: 112%
Cc1ccc(NC(=O)NCCCl)cc1S(=O)(=O)N1CCOCC1 | inconclusive: 67.9%
CNc1nc(SC(C)C(=O)Nc2ccc(Cl)c(Cl)c2)nc(N2CCOCC2)n1 (stereo unspecified) | inactive: 103%
CCOC(=O)c1sc(NC(=O)CCC(=O)O)nc1C | inconclusive: 108%
CCCCC(CC)COC1(c2ccccc2)OC(=O)c2ccccc21 (stereo unspecified) | inactive: 95.7%
Cc1ccccc1Nc1c(-c2ccccc2)nc2ncccn12 | inconclusive: 38.8%
